Laboratory results reported in patent US20240115667A1 (priority 2020, published 2024).
In brackets after ≈: the same amount, converted by molar mass. Read-outs that look alike come from different tables or passages of the source.

Columns and labels:
SARS-CoV-2 [1] = conditions: diphenhydramine alone
SARS-CoV-2 [2] = conditions: cited from earlier work
SARS-CoV-2 [3] = assay: microbe, parasite or virus in culture; conditions: Vero E6, 72 h, MOI 0.3

For `CN(C)CCOC(c1ccccc1)c1ccccc1` [Diphenhydramine], the “Cytotoxicity EC50 relative to plaque reduction assay EC50” value (SARS-CoV-2 [1]) is listed as “about 7 times higher”, the “EC50 for SARS-CoV-2 by plaque reduction assay” value (SARS-CoV-2 [2]) is listed as 17.4 µg/mL and the EC50 (SARS-CoV-2 [2]; read-out: EC50 for SARS-CoV-2 by plaque reduction assay) is listed as 59.6 µM. It also gave an EC50 (SARS-CoV-2 [3]; Severe acute respiratory syndrome coronavirus 2, Vero C1008, 72 h, read-out: Diphenhydramine EC50, with 0 μg/mL lactoferrin) of 155 µg/mL, an EC50 (SARS-CoV-2 [3]; Severe acute respiratory syndrome coronavirus 2, Vero C1008, in Homo sapiens, 72 h, read-out: Diphenhydramine EC50, with 50 μg/mL human unsaturated lactoferrin) of 40.8 µg/mL (≈ 160 µM) and an EC50 (SARS-CoV-2 [3]; Severe acute respiratory syndrome coronavirus 2, Vero C1008, in Homo sapiens, 72 h, read-out: Diphenhydramine EC50, with 100 μg/mL human unsaturated lactoferrin) of 43.3 µg/mL (≈ 169 µM). It also gave an EC50 (SARS-CoV-2 [3]; Severe acute respiratory syndrome coronavirus 2, Vero C1008, in Homo sapiens, 72 h, read-out: Diphenhydramine EC50, with 200 μg/mL human unsaturated lactoferrin) of 41 µg/mL (≈ 161 µM), an EC50 (SARS-CoV-2 [3]; Severe acute respiratory syndrome coronavirus 2, Vero C1008, in Homo sapiens, 72 h, read-out: Diphenhydramine EC50, with 400 μg/mL human unsaturated lactoferrin) of 40.4 µg/mL (≈ 158 µM) and an EC50 (SARS-CoV-2 [3]; Severe acute respiratory syndrome coronavirus 2, Vero C1008, in Homo sapiens, 72 h, read-out: Diphenhydramine EC50, with 800 μg/mL human unsaturated lactoferrin) of 42.8 µg/mL (≈ 167 µM).
